This note sets out measurements from article PMC5779226.

Results are given in words; binding and its absence hold for the method and conditions named. Binding seen in cells or lysates may run through a third protein. For part of these data: Binding calls can cover weak binding; strength is not graded here. For part of these data: Tags and fused reporters may be left off the sequences shown.

For assay [1], the target named is T1, eGFP-ME31B (transfected in S2 cells) (Drosophila) (UniProt P23128).
T1 sequence: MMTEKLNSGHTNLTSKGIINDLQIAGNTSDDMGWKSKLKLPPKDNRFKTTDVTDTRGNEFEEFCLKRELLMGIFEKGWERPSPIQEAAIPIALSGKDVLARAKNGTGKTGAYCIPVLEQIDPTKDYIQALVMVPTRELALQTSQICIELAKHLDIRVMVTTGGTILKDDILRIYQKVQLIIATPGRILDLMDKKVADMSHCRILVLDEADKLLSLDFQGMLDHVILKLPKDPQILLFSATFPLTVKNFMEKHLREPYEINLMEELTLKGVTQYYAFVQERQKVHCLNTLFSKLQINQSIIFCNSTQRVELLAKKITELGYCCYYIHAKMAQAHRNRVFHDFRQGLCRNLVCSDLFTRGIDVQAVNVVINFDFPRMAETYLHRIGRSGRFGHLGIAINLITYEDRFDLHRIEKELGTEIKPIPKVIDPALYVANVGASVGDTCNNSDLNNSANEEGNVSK
Kind of assay: co-IP; S2 cells transfected with eGFP-ME31B (control FLAG-eGFP), anti-GFP antibodies on protein G beads; western blot. A general note: A western blot detects proteins with antibodies after separation by electrophoresis.

The target in assay [2] is eIF4G (D. melanogaster (endogenous in S2 cells and embryos)). Kind of assay: co-IP; S2 cell extracts, anti-PABP or anti-eIF4G Fabs (control C1) on anti-FLAG beads, 2-3 hr at 4°C, six washes; western blot.

Take “HPat (D. melanogaster (endogenous in S2 cells))”: the binding entry in assay [1] is on record as “binds”.

On to eIF4G, for which the binding entry in assay [1] is reported as “no binding”.

B1: ME31B (protein, UniProt P23128 1-459)
chain: MMTEKLNSGHTNLTSKGIINDLQIAGNTSDDMGWKSKLKLPPKDNRFKTTDVTDTRGNEFEEFCLKRELLMGIFEKGWERPSPIQEAAIPIALSGKDVLARAKNGTGKTGAYCIPVLEQIDPTKDYIQALVMVPTRELALQTSQICIELAKHLDIRVMVTTGGTILKDDILRIYQKVQLIIATPGRILDLMDKKVADMSHCRILVLDEADKLLSLDFQGMLDHVILKLPKDPQILLFSATFPLTVKNFMEKHLREPYEINLMEELTLKGVTQYYAFVQERQKVHCLNTLFSKLQINQSIIFCNSTQRVELLAKKITELGYCCYYIHAKMAQAHRNRVFHDFRQGLCRNLVCSDLFTRGIDVQAVNVVINFDFPRMAETYLHRIGRSGRFGHLGIAINLITYEDRFDLHRIEKELGTEIKPIPKVIDPALYVANVGASVGDTCNNSDLNNSANEEGNVSK
As for B1, in assay [2], the binding result is reported as “no binding”.
